According to patent publication US7238786B2, “Monoclonal antibody cPAM4” (Immunomedics, Inc., priority 2002, dated 2007):

Tested on: PAM4 antigen
Assay: PAM4 enzyme immunoassay of blood in the orthotopic CaPan1 model
Assay type: binding, athymic nude mice

B1: PAM4: murine MUC1 monoclonal antibody developed with pancreatic cancer mucin from the xenografted RIP-1 human pancreatic carcinoma as immunogen (antibody, V domains shown)
VL: DIVMTQSPAIMSASPGEKVTMTCSASSSVSSSYLYWYQQKPGSSPKLWIYSTSNLASGVPARFSGSGSGTSYSLTISSMEAEDAASYFCHQWNRYPYTFGGGTKLEIK
VH: EVQLQESGPELVKPGASVKMSCKASGYTFPSYVLHWVKQKPGQGLEWIGYINPYNDGTQYNEKFKGKATLTSDKSSSTAYMELSRLTSEDSAVYYCARGFGGSYGFAYWGQGTLITVSA
level of antigen in the blood, range (six weeks, four out of five animals quantifiable): 98-6080 units | antigen in the blood (two weeks postimplantation, estimated tumor mass 0.15 g): none of the animals had detectable antigen
